Among the data in patent US20050002923A1 (published 2005) are binding values, retold here.

Results are given in words; binding and its absence hold for the method and conditions named. Some entries that bind do so weakly or less than the wild type.

Assay [1] concerns the target Bacillus caldotenax (Bca) UvrA protein (Bacillus caldotenax). The assay can be described thus: coupled ATPase assay of UvrA + Δβh UvrB with UV-irradiated DNA.
Assay [2] has the same target. The assay can be described thus: gel mobility shift and competition with wt UvrB on F26-50 dsDNA, 55° C.

B1: β-hairpin deletion mutant of B. caldotenax UvrB (Δβh UvrB) (enzyme)
chain: VEGRFQLVAPYEPQGDQPQAIAKLVDGLRRGVKHQTLLGATGTGKTFTISNVIAQVNKPTLVIAHNKTLAGQLYSELKEFFPHNAVEYFVSYYDYYGAKINDEIDKLRHSATSALFERRDVIIVASVSCIYGLGSPEEYRELVVSLRVGMEIERNALLRRLVDIQYDRNDIDFRRGTFRVRGDVVEIFPASRDEHCIRVEFFGDEIERIREVDALTGEVLGEREHVAIFPASHFVTREEKMRLAIQNIEQELEERLAELRAQGKLLEAQRLEQRTRYDLEMMREMGFCSGIENYSRHLALRPPGSTPYTLLDYFPDDFLIIVDESHVTLPQLRGMYNGDRARKQVLVDHGFRLPSALDNRPLTFEEFEQKINQIIYVSATPGPYELEHSPGVVEQIIRPTGLLDPTIDVRPTKGQIDDLIGEIRERVERNERTLVTTLTKKMAEDLTDYLKEAGIKVAYLHSEIKTLERIEIIRDLRLGKYDVLVGINLLREGLDIPEVSLVAILDADKEGFLRSERSLIQTIGRAARNANGHVIMYADTITKSMEIAIQETKRRRAIQEEYNRKHGIVPRTVKKEIRDVIRATYAAEETEMYEAKPAAAMTKQEREELIRTLEAEMKEAAKALDFERAAQLRDIIFELKAEG
Turning to B1, the binding entry in assay [1] and in assay [2] was “binds” in each case.
